Results are given in words; binding and its absence hold for the method and conditions named. A result given as binding can be weak or reduced; the word gives no strength. Tags and fused reporters may be left off the sequences shown.
Tests used:
[1] = biological target: Enzymatically biotinylated uPAR immobilized on avidin-coated plate; assay: biotinylated uPAR on avidin-coated plate probed with CYTL1-AP, AP substrate
[2] = biological target: Enzymatically biotinylated uPAR immobilized on avidin-coated plate; assay: plate assay: enzymatically biotinylated uPAR on avidin-coated plate probed with CYTL1-AP conditioned medium, AP substrate

B1: Human CYTL1-alkaline phosphatase fusion protein (protein, not shown: large carriers)
chain: TPPTCYSRMRALSQEITRDFNLLQVSEPSEPCVRYLPRLYLDIHNYCVLDKLRDFVASPPCWKVAQVDSLKDKARKLYTIMNSFCRRDLVFLLDDCNALEYPIPVTTVLPDRQR
Q: What does the source list for B1?
A: binding [1]: binds; binding [2]: binds
